Test results: patent publication US6110122A, “Breath test for assessing hepatic function” (priority 1999, dated 2000)
Values joined by “and” are separate entries in the source; they are usually repeats but may differ in a detail not shown here. Equal entries are not always repeated.

Tested on: hepatic mitochondrial function
Assay: MBT in patients with liver disease, reproducibility and correlation with Child-Pugh score
[1] = threshold 4% (maximum % oxidized/h)

CSCC[C@H](N)C(=O)O [methionine, L-1-^13 C-methionine]
difference between two independently administered tests (20 volunteers and 22 patients with liver disease): 11% | correlation r between MBT test 1 and test 2 (all participants (healthy controls and liver patients combined)): 0.97 | difference between controls and CP A (in words) (controls vs CP A patients): no significant difference | correlation r of reproducibility in liver patients (liver patients, MBT 1 vs MBT 2): 0.93 | correlation r of MBT with CP score (liver patients, p<0.001): -0.81 | accuracy of MBT [1]: 95% | specificity of MBT [1]: 96% | sensitivity of MBT (threshold 4% (maximum % oxidized/h), CP B/C vs controls/CP A): 94% and 93%
